Screening data, single-dose tests

Measurements from “University of Dundee, Small-Polar-MMV Screening Library” (2021), ChEMBL document CHEMBL3988442.

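Growth of Mycobacterium tuberculosis over 3 days (7H9 medium with glucose and tyloxapol); the read-out is not stated. Compounds at 50 µM. Higher reads as more growth inhibition (inferred: compounds with an IC50 in retests scored well above the rest). About 69,000 compounds were tested under these conditions; 1.1% (about 760) showed 50% or more at least once.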

Results are given as percent effect. The record does not define 0% and 100%; most values in the screen are far below 50% and negative numbers occur (in some assays of this library far below -100). The compounds are a random part of those screened. Two or more numbers in one place are separate tests of the same structure; such repeats can differ widely.

With O=C1NCC2=C1C(c1ccc(O)cc1)Nc1ccccc1N2 (centres undefined) the screen gave -10.91%. Result for COc1ccnc(NCc2ccccc2Cn2cccn2)n1 was 14.41%. COc1ccc(N2CCC(N(C)C(=O)Nc3ccncc3)CC2)cc1 read 9.207%. Result for N#CCCN(CCC#N)C(=O)CN1CCCC1Cc1cccc(F)c1 (centres undefined) was 2.384%. For CCC(CC)n1nc(C)cc1NC(=O)C1CCOC1 (centres undefined) the result was -14.97%. With Cl.[H][C@@]12CCN(Cc3cccs3)C[C@]1([H])[C@@H](c1ccsc1)CN2C(=O)C(C)(C)C the screen gave 25.27%. With CN(C)C(=O)CN1CCCC2(CCN(c3ccsc3)C2=O)C1.O=C(O)C(F)(F)F (centres undefined) the screen gave -32.52%. With CN(CCC#N)C(=O)Cc1csc(-c2ncccn2)n1 the screen gave -34.57%.

Result for CCOc1ccc(NC(=O)CN2CCN(c3nccn3C)CC2)cc1 was 42.49%. Result for Cn1cc(C2=CCN(CCC(=O)NCc3ccc(Cl)cc3)CC2)cn1 was -6.088%. Cc1cc(NC(=O)c2ccc(-n3ncc(C#N)c3N)cc2)n(C)n1 gave -38.39%. CC(C)c1ncncc1C(=O)NCCN1CCCS1(=O)=O gave -14.22%. Cc1ccsc1CN(CCCN(C)C)Cc1ccccn1 read 34%. O=C(c1cc(=O)c(OCc2ccccc2)co1)N1CCSCC1 gave -0.7682%. COc1ccccc1OCCNC(=O)CN1CCc2cncnc2C1 gave 25%. COCC1CC2(CCN(CC3CC3)CC2)CN1Cc1csc(C)n1.O=C(O)C(F)(F)F.O=C(O)C(F)(F)F (centres undefined) read -4.169% and -23.41%.

For CCN(CC)C1(Cc2cc(-c3ccccn3)on2)COC1 the result was 2.077% and 4.61%. Result for CC(C)c1cc(NC(=O)CNC2CCc3nc(C(C)C)nn3C2)on1 (centres undefined) was 6.166% and -3.737%. For O=C(NCC(O)c1cccc(F)c1)c1sccc1OC(F)F (centres undefined) the result was -9.667%. CCC(CN1CCCC1)n1cncc1-c1cnn(-c2ccccc2)c1.Cl (centres undefined) gave -15.87%. Result for Clc1cc(CN2CCCC2Cn2cncn2)c2ncccc2c1 (centres undefined) was -2.557%. For O=C(Nc1cccc(C(F)(F)F)c1)N1CCN(CCn2ccnc2)CC1 the result was 35.58%. CSCC(CCO)NC(=O)c1cccc(Cl)c1F (centres undefined) gave -5.384%. CCCN(C(=O)c1cnns1)C1CCCN(Cc2ccccc2)C1 (centres undefined) gave -7.236%.

Result for COc1ccccc1OCCNC(=O)NCC(C)C was -16.65% and 0.8066%. Result for [H][C@@]12COC[C@]1(CNS(C)(=O)=O)CN(C(=O)c1occc1C)C2 was -7.171% and -1.33%. For c1ccc2oc(N3CCn4c(nnc4C4CC4)C3)nc2c1 the result was -15.9%. Result for COc1ccc(-c2noc(Cn3cc(C)cn3)n2)c(OC)c1OC was 11.17%. For O=C(O)C(F)(F)F.[H][C@@]12OCCN(C(=O)c3cccn3C)[C@@]1([H])CC[C@H]2OCc1cccnc1 the result was 2.749% and -0.3794%. COc1cc(CN)c(OC)c2c1OCO2.Cl gave 12.34%. CC(C(=O)NC1CC1)N1CCN(Cc2ccn(C)c(=O)c2)CC1 (centres undefined) read -28.97%. CCc1nnc2n1CCN(CC(=O)Nc1cc(C(C)(C)C)nn1C)C2 gave -28.72%.

O=C(NC1CCN(CC2CCCC2)C1)N1CCC(OCC2CC2)CC1 (centres undefined) read 15.53% and -2.149%. CN(CC(N)=O)Cc1ccc(F)cc1Cl gave -22.76%. For CN(C)CC1(O)CCN(S(=O)(=O)c2ccc(F)cc2)C1 (centres undefined) the result was -15.43%. Cc1nccn1CCCNc1ccc(Cl)c(C#N)n1 gave -4.38%. CCn1c(C)nnc1CN(C)C1CCN(CCCOC)C1 (centres undefined) read -5.095%. O=C(NCc1nc(NC2CCCC2)c2cc(Cl)ccc2n1)c1ccoc1 gave -34.55%. With CC(C)c1nc(C2CCCN2CC(=O)N2CCNC2=O)no1 (centres undefined) the screen gave 4.973%. Result for NC(=O)c1cccc(CCNC(=O)N2CCCC2)c1 was -4.615% and 5.553%.

With CC(=O)Nc1ccc(Cl)c(C(=O)N(C)C(C)c2ccncn2)c1 (centres undefined) the screen gave 2.376%. CN1CC(c2ccccc2)CC12CCN(C(=O)c1ccncc1)CC2 (centres undefined) gave 16.71%. With COC(=O)NCC1CCC2(CCNCC2)O1.Cl (centres undefined) the screen gave -4.042%. For CCCn1[nH]cc/c1=N\C(=O)CN1CCc2cnc(CC)nc2C1 the result was -14.11%. For COCCC(=O)N1CCN(C)c2ncccc2C1 the result was -12.97%. For CC(C)CC(=O)N1CCC2(CC1)OCCO2 the result was -19.55%. CCOCc1ccc(CNC2=NCCCN2)cc1.I gave 6.074%. With Cc1ccc(C(=O)N(CC(=O)O)CC(C)C)cc1F the screen gave 8.084%.

With CC[C@]12CN3C[C@](C)(CN(C1)C3c1[nH]c(=O)[nH]c(=O)c1C)C2=O (some centres undefined) the screen gave -12.46%. CC(C)c1nnc2n1CC(CNCc1ccsc1)CC2 (centres undefined) gave 9.06%. CC(C)(N)c1cn(C2CCN(c3ncccc3Cl)CC2)nn1 read 19.37%. CC1CCN(C(=O)c2cn(-c3ccc(C(F)(F)F)cn3)nn2)CC1 read -23.25%. For Cc1ccc(CN(C(=O)c2cccc(NC(N)=O)c2)C2CC2)o1 the result was 33%. CC(C)N1CCCC2(CCN(C(=O)COCC(F)(F)C(F)F)C2)C1=O (centres undefined) gave 2.012%. CC(=O)N1CCCC1c1nnc2n1CCCCC2 (centres undefined) gave -39.32%. Cc1cnn(CC2CN(CC(=O)N(C)c3nccs3)CCO2)c1 (centres undefined) gave 21.24%.

For O=C(O)C(F)(F)F.O=C1N(CC2CC2)CCC12CCN(CC1CC1)CC2 the result was -0.5165% and -17.04%. Result for CS(=O)(=O)N[C@H]1CN(C(=O)CCc2ccc(=O)[nH]n2)C[C@@H]1C1CC1 was 18.28%. CC(=O)N1CCOC[C@H](OCC(=O)N(C)C)C1 gave -2.467% and 0.6119%.

Some entries from above, unchanged:

{"structure": "COCCC(=O)N1CCN(C)c2ncccc2C1", "percent effect": -12.97}
{"structure": "CN(CC(N)=O)Cc1ccc(F)cc1Cl", "percent effect": -22.76}
{"structure": "CC(C)CC(=O)N1CCC2(CC1)OCCO2", "percent effect": -19.55}
{"structure": "COc1ccccc1OCCNC(=O)CN1CCc2cncnc2C1", "percent effect": 25}
{"structure": "O=C(Nc1cccc(C(F)(F)F)c1)N1CCN(CCn2ccnc2)CC1", "percent effect": 35.58}
{"structure": "CCCN(C(=O)c1cnns1)C1CCCN(Cc2ccccc2)C1", "stereo": "centres undefined", "percent effect": -7.236}